{"sequences": {"note": "Sequences of proteins named here, by UniProt entry; tags and fusion partners are left off. A change or cut given only in a name is not applied to a line headed by its entry.", "UniProt Q92974": "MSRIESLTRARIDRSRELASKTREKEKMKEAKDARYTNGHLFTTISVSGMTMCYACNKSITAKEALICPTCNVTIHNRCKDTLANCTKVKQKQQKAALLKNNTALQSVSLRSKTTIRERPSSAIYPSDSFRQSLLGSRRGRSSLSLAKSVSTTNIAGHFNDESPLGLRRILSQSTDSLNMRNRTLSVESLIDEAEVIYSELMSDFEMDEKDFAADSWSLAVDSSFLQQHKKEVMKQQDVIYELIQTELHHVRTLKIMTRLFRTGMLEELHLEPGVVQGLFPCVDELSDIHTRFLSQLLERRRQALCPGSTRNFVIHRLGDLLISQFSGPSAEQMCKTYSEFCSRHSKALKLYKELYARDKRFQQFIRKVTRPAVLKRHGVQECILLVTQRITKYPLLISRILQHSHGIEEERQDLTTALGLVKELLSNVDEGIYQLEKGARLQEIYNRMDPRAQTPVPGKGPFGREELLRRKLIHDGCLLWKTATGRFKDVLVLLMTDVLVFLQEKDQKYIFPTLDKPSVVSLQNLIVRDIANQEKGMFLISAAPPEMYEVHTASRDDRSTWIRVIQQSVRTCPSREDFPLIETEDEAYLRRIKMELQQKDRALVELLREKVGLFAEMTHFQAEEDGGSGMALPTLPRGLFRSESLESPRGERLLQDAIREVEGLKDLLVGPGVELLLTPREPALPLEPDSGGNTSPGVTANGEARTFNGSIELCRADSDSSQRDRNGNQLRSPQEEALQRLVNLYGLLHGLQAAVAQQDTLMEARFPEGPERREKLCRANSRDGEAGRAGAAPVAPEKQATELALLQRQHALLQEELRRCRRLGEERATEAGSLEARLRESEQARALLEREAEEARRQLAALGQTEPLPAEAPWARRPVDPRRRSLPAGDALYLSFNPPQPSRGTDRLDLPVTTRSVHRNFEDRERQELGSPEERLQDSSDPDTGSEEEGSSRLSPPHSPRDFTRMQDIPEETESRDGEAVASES"}, "source": "patent US20040091907A1", "binders": {"B1": {"name": "biotinylated PAK4 peptide consisting of amino acids 276-324 (peptide)", "peptide": "CTPAAPAVPAVPGPPGPRSPQREPQRVSHEQFRAALQLVVDPGDPRSYLDNF", "modifications": "biotinylated (position not given)"}}, "target": "T1, GFP-GEF-H1 (human) (UniProt Q92974)", "T1 sequence": "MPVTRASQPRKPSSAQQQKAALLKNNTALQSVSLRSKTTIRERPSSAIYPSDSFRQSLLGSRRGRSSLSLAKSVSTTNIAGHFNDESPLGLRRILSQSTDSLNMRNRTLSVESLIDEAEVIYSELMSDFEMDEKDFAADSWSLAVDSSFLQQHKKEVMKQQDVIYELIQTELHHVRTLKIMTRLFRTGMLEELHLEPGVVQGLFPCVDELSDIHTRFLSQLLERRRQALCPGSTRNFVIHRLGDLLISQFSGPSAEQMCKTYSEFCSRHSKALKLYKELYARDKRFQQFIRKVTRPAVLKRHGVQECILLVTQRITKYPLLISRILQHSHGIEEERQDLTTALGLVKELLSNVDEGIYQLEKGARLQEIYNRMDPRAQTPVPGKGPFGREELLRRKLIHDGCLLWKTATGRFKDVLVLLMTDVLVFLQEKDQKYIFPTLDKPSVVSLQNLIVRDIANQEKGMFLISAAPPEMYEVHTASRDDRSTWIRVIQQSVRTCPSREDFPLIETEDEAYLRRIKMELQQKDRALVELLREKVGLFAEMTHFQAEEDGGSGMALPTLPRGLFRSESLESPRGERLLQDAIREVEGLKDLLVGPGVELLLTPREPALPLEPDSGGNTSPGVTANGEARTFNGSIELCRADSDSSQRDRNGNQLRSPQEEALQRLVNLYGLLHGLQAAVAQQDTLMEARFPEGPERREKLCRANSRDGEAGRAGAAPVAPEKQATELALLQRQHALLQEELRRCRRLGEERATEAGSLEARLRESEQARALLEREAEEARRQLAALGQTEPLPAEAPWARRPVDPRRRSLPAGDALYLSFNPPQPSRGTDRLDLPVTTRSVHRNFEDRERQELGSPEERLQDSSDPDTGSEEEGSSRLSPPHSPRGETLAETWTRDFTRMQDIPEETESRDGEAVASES", "assay": "biotinylated peptide on streptavidin beads, pull-down from 293T lysate, GEF-H1 immunoblot", "note": "These are yes or no findings as the source states them, for the method shown. Binding seen in cells or lysates may run through a third protein. Some results given as binding are weak or reduced against the parent protein; the word gives no strength. Where a sequence is shown, tags or fusion partners need not be part of it."}
{"binder": "B1", "values": [{"measurement": "binding", "result": "binds"}]}
